The campaign covered roughly 220,000 compounds. About 910 (0.41%) were called active. The shares of active, inactive and inconclusive entries below differ from those in the screen.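 Rule for the calls: active = primary inhibition above the hit cutoff, then over 50% inhibition at one or more dose response concentrations (cut at about 23% in these data, passing the limit was not always enough); inconclusive = conflicting primary data, or primary hits not chosen for dose response; inactive = low primary inhibition, or under 50% at every dose.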
Molecular target: Aminopeptidase N (Plasmodium falciparum (isolate 3D7)) (UniProt O96935)
Experiment: P. falciparum M1AAP inhibitors, biochemical, fluorogenic H-Leu-NHMec substrate, 1536-well (AID 1445);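 note: plate controls were DMSO full reaction for no effect and no enzyme background for full effect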
Settings: recombinant M1AAP, H-Leu-NHMec fluorogenic kinetic assay; at 30 µM, stronger effect = higher value unless noted

Chains of the proteins cited; added tags and fusions are not shown. Lines headed by an entry give the natural chain unless they say otherwise; changes in a name come on top.
UniProt O96935: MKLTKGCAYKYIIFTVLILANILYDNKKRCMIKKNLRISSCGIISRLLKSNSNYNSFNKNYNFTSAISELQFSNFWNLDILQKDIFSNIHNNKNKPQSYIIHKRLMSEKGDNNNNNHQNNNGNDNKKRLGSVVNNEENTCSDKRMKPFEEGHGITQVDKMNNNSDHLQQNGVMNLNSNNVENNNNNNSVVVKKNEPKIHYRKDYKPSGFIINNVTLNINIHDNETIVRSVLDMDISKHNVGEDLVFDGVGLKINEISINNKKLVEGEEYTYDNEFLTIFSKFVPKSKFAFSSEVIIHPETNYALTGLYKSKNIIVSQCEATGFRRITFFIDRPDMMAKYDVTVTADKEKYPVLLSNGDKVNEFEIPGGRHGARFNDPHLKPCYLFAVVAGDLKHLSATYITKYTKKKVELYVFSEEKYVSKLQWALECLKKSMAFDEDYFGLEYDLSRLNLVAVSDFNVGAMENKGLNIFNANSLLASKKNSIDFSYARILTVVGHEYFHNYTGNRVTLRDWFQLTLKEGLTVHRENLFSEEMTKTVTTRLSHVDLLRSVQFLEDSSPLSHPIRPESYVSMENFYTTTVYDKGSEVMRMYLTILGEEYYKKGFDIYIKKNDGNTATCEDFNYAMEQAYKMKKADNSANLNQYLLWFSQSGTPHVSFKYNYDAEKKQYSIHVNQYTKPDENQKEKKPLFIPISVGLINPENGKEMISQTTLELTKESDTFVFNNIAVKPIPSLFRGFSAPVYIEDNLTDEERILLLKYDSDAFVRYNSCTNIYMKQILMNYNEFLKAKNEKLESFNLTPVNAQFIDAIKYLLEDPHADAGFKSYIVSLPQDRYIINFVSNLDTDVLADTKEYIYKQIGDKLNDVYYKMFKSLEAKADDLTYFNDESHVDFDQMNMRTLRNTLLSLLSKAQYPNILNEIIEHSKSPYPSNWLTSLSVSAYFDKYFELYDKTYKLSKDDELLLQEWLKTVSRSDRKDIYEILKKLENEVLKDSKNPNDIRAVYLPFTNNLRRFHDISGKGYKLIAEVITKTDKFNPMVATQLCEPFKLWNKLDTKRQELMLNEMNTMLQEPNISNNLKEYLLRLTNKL

SMILES	inhibition
COc1cccc(-n2c(SCc3cc(=O)oc4cc(O)c(O)cc34)nc3ccccc3c2=O)c1	inconclusive: 25.7%
CCC(CC)C(=O)Nc1cccc(/C(C)=N/NC(=O)c2c(Br)cnn2C)c1	inconclusive: 27.1%
COc1cccc(N=Cc2nc(-c3ccccc3)oc2OC(C)=O)c1	inconclusive: 24.6%
C=CCN1C(=O)/C(=c2\sc3nc(=O)c(Cc4ccccc4)nn3c2=O)c2ccccc21	inconclusive: 24%
Cc1ccc(O)c(-c2cc(C(=O)Nc3ccc(S(=O)(=O)Nc4nccc(C)n4)cc3)[nH]n2)c1	inactive: 5.6%
Cc1ccc(C)c2[nH]c(=O)c(C(c3nnnn3Cc3ccccc3)N3CCc4ccccc4C3)cc12 (stereo not drawn)	inactive: 7.95%
O=S(=O)(Nc1ncnc2sc3c(c12)CCC3)c1ccc2ccccc2c1	active: 27.9%
COc1ccc([N+](=O)[O-])cc1NS(=O)(=O)c1ccccc1	inactive: 6.84%
CCN(CC)c1cc(C)c2cc(NC(=O)c3ccc(Br)o3)ccc2n1	inactive: 8.17%
COc1ccc(NC(=O)CSc2c(C)n[nH]c2C)cc1	inactive: 0.25%
O=C(CSc1nnc(-c2ccco2)c(-c2ccco2)n1)Nc1ccccc1	inconclusive: 31.4%
COCc1cc(C)n(CC(=O)OC)c(=O)c1C#N	inactive: 6.13%
COc1ccc2cc3cc(C(=O)Nc4cc(OC)c(OC)c(OC)c4)oc3nc2c1	inconclusive: 24.4%
Cc1cc(-c2n[nH]c(=S)o2)c(C)n1-c1ccccc1	inconclusive: 25.2%
NNC(=O)c1[nH]c2ccc(Cl)cc2c1-c1ccccc1	inconclusive: 27.9%
Cc1c(OCc2nn[nH]n2)ccc2c3c(c(=O)oc12)CCC(C)C3 (stereo not drawn)	inconclusive: 15.5%
CC(NC(=O)c1cc(-c2ccc3c(c2)OCO3)nc2ccccc12)C(C)(C)C (stereo not drawn)	inactive: 3.57%
O=C(Nc1ccc(-n2ccnc2P(=O)(O)c2ccccc2)cc1)c1ccccc1Cl	active: 75.1%
Cn1cc(/C=C2\SC(=S)N(NC(=O)c3ccccc3)C2=O)c2ccccc21	inactive: 3.01%
N#Cc1cc2c(=O)n3ccccc3nc2n(CCCN2CCOCC2)c1=O	inconclusive: 11.7%
Cc1cc(C(=O)c2cccs2)c(N)s1	inconclusive: 24.4%
COc1ccc(NC(=O)C2C3C=CC(C3)C2C(=O)NCc2ccco2)cc1 (stereo not drawn)	inactive: 4.82%
CCCCn1c(NC(=O)c2ccccc2)c(C#N)c2nc3ccccc3nc21	inactive: 2.47%
Cc1ccc(C)c(Oc2coc3cc(OCC(=O)Nc4ccccc4C(C)C)ccc3c2=O)c1	inactive: 2.02%
CCCCNC(=O)c1sc(=S)n2c1[nH]c(=O)c1ccccc12	inconclusive: 44.6%
CCn1c(NC(=O)c2cccs2)c(-c2cccs2)c(=O)c2ccccc21	active: 27%
O=C(CCCN1C(=O)/C(=C/c2cccs2)SC1=S)Nc1ccc(O)c(C(=O)O)c1	inconclusive: 27.3%

SMILES	inhibition
N=c1c(S(=O)(=O)c2ccc(Cl)cc2)cc2c(=O)n3ccccc3nc2n1CCN1CCOCC1	inconclusive: 3.2%
CO[C@H]1C=CO[C@@]2(C)Oc3c(C)c(O)c4c(O)c(c(C=NN5CCN(C)CC5)c(O)c4c3C2=O)NC(=O)C(C)=CC=C[C@H](C)[C@H](O)[C@@H](C)[C@@H](O)[C@@H](C)[C@H](OC(C)=O)[C@@H]1C	inconclusive: 24.5%
O=C(NC1CCN(C(=S)NCc2ccco2)CC1)C1CCCCC1	inactive: 6.27%
O=C(O)c1cccc(NC(=S)N/N=C/c2c[nH]c3ccccc23)c1	inconclusive: 24.6%
O=C(NNS(=O)(=O)c1ccccc1F)c1sccc1-n1cccc1	inactive: 1.58%
Cc1ccc2c(c1)-c1c(cnn1CC(=O)N1CCCN(Cc3ccccc3F)C1)CO2	active: 26.4%
CCn1cc(/C=C(\NC(=O)c2ccc(OC)c(OC)c2)C(=O)NCCCO)c2ccccc21	inconclusive: 23.8%
O=C(CSc1nnnn1-c1ccccc1)Nc1ccc(N2CCOCC2)c(Cl)c1	inconclusive: 28.1%
O=C(O)c1ccc(CNC(=O)c2ccccc2NC(=O)c2ccc([N+](=O)[O-])cc2)cc1	inactive: 1.28%
CCOC(=O)C1=C(O)C(=O)N(c2ccc(S(N)(=O)=O)cc2)C1c1ccc(Br)cc1 (stereo not drawn)	inactive: 0.8%
COc1ccc2nc(NC(=O)c3ccccc3-c3ccccc3C(=O)O)sc2c1	inconclusive: 23.9%
O=c1oc2cc(O)ccc2cc1-c1ccc(F)cc1	inconclusive: 25.2%
Cc1ccc(S(=O)(=O)NC(=O)Nc2ncc3c(n2)CC(c2ccco2)CC3=O)cc1 (stereo not drawn)	inconclusive: 24.4%
Cc1ccc(-c2nn(-c3ccccc3)cc2/C=C(\C#N)C(=O)NCc2ccccc2)cc1	inconclusive: 27.8%
Cc1cc(SCC(=O)N/N=C/c2ccc(O)cc2O)c(C)cc1Br	active: 24%
CSC1=NSC2=NC(=O)/C(=C/c3coc4ccc(O)cc4c3=O)C(=N)N12	inconclusive: 37.9%
O=C(Nc1ccc2c(c1)OCO2)C1CCN(S(=O)(=O)c2ccc3c(c2)OCCO3)CC1	inconclusive: 46.2%
CCn1c2ccccc2c2cc(NC(=O)C/C(C)=N/NC(=O)c3ccccc3N)ccc21	inconclusive: 25.5%
O=C(O)c1cc(N=Nc2c(O)ccc3ccccc23)cc(C(=O)O)c1	inconclusive: 23.9%
O=C(Cn1cc(C(F)(F)F)ccc1=O)N1CCN(S(=O)(=O)c2ccc(Cl)cc2)CC1	inactive: 0.58%
COc1ccc(C(=O)N/N=C/c2ccc(N3CCOCC3)o2)cc1OC	inconclusive: 23.5%
Cc1ccc(S(=O)(=O)/N=C2/C=C(Sc3ncn[nH]3)C(=O)c3ccccc32)c(C)c1	inconclusive: 30.8%
CCc1cccc(CC)c1NC(=O)COC(=O)c1ccc(F)c(S(=O)(=O)N(CC)CC)c1	inactive: 3.7%
O=C(Cn1cncn1)N/N=C/c1cc([N+](=O)[O-])ccc1O	inconclusive: 25.2%
COc1cccc(-c2[nH]nc3c2C(c2ccsc2)C(C#N)=C(N)O3)c1 (stereo not drawn)	inconclusive: 35.1%
c1cnc2ccc(C(c3nnnn3C3CCCC3)N3CCN4CCCC4C3)cc2c1 (stereo not drawn)	inconclusive: 17%

Looked up above:
Entry of COc1ccc2nc(NC(=O)c3ccccc3-c3ccccc3C(=O)O)sc2c1 under inhibition: inconclusive: 23.9%
Entry of Cc1ccc(-c2nn(-c3ccccc3)cc2/C=C(\C#N)C(=O)NCc2ccccc2)cc1 under inhibition: inconclusive: 27.8%
Entry of Cc1cc(SCC(=O)N/N=C/c2ccc(O)cc2O)c(C)cc1Br under inhibition: active: 24%
Entry of Cc1ccc2c(c1)-c1c(cnn1CC(=O)N1CCCN(Cc3ccccc3F)C1)CO2 under inhibition: active: 26.4%
